PubChem BioAssay AID1224830 | NIAID – 2016
Screen: 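Genes whose knock-down alters the TNF-alpha reporter response to LPS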 (primary screen). Cell system: human THP-1 monocytic leukaemia cells, TNF dual-luciferase reporter clone, PMA-differentiated to macrophage-like cells. Knock-down reagent: siRNA pool against human genes, 50 nM. Timing: LPS for 4 h, given about 3 days after siRNA transfection. Challenge: bacterial LPS (TLR4 ligand), 10 ng/ml. Measured: 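Ratio of firefly to renilla light, scaled to the plate median and expressed as a robust z-score per replicate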. Scale: TNF reporter robust z-score: higher = stronger TNF reporter response to LPS. Hit rule: 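Each well counts as active if its z-score is over 2.8 or under -1.5; controls are left without a call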.
The deposit covers about 18,000 reagents; this is a part drawn at random. About 2,900 of them (16%) count as active. 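Calls are made per well; low scores hint the gene aids the LPS response, high scores that it dampens it.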 Unmarked entries are inactive. Repeated entries: four replicate wells of each siRNA pool.

After knock-down of MSH4, the screen gave TNF reporter robust z-score -0.76. MSH4 showed TNF reporter robust z-score -0.58. Silencing of MSH4 resulted in: TNF reporter robust z-score -0.97. After knock-down of MSH4, the screen gave TNF reporter robust z-score -0.62. Knock-down of PLEKHG5 came out at: TNF reporter robust z-score -0.07. With knock-down of PLEKHG5, the screen gave TNF reporter robust z-score -0.89.

Silencing of PLEKHG5 came out at: TNF reporter robust z-score 0.36. PLEKHG5 scored TNF reporter robust z-score -0.15. After knock-down of DFFB, the screen gave TNF reporter robust z-score 0.48. Against DFFB, the entry reads TNF reporter robust z-score 0.65. DFFB scored TNF reporter robust z-score 0.4. DFFB scored TNF reporter robust z-score 0.85.

For TNFSF10, the entry reads TNF reporter robust z-score 0.84. TNFSF10 gave TNF reporter robust z-score 1.16. Against TNFSF10 the deposit lists TNF reporter robust z-score -0.12. For TNFSF10 the deposit lists TNF reporter robust z-score 1.03. After knock-down of XYLB, the screen gave TNF reporter robust z-score -0.96. XYLB gave TNF reporter robust z-score -0.6.

Silencing of XYLB resulted in: TNF reporter robust z-score 0.36. XYLB showed TNF reporter robust z-score -0.84. For MAP2K1, the entry reads TNF reporter robust z-score -0.75. For MAP2K1, the entry reads TNF reporter robust z-score -0.9. MAP2K1 gave TNF reporter robust z-score 0.02. Knock-down of MAP2K1 gave: TNF reporter robust z-score 0.05.

Against BOLA3, the entry reads TNF reporter robust z-score 0.32. After knock-down of BOLA3, the screen gave TNF reporter robust z-score 0.94. BOLA3 gave TNF reporter robust z-score 1.52. BOLA3 gave TNF reporter robust z-score 1.03. After knock-down of CENPV, the record shows TNF reporter robust z-score 1.96. CENPV showed TNF reporter robust z-score 1.95.

With knock-down of CENPV, the screen gave TNF reporter robust z-score 1.38. With knock-down of CENPV, the record shows TNF reporter robust z-score 2.15. CHCHD4 scored TNF reporter robust z-score -0.02. With knock-down of CHCHD4, the record shows TNF reporter robust z-score 0.24. Against CHCHD4 the deposit lists TNF reporter robust z-score 0.08. CHCHD4 scored TNF reporter robust z-score 0.06.

F2 scored TNF reporter robust z-score 1. For F2, the entry reads TNF reporter robust z-score 1.24. Depletion of F2 came out at: TNF reporter robust z-score 1.05. Depletion of F2 came out at: TNF reporter robust z-score 0.21. After knock-down of ARMC9, the record shows TNF reporter robust z-score -0.95. Depletion of ARMC9 came out at: TNF reporter robust z-score 0.1.

With knock-down of ARMC9, the screen gave TNF reporter robust z-score -0.52. ARMC9 gave TNF reporter robust z-score 0.62. Silencing of MTMR7 resulted in: TNF reporter robust z-score -0.17. Knock-down of MTMR7 gave: TNF reporter robust z-score -1.11. With knock-down of MTMR7 the results were TNF reporter robust z-score -1.33. Depletion of MTMR7 gave: TNF reporter robust z-score -0.94.

5 entries from above, sorted by “TNF reporter robust z-score”, highest first.
BOLA3 — TNF reporter robust z-score = 1.52
BOLA3 — TNF reporter robust z-score = 0.94
BOLA3 — TNF reporter robust z-score = 0.32
MAP2K1 — TNF reporter robust z-score = 0.05
MAP2K1 — TNF reporter robust z-score = 0.02
